Assay results from PubChem BioAssay AID1671190 (National Center for Advancing Translational Sciences (NCATS), 2021).
The whole screen tested about 580,000 compounds, of which about 6,100 (1.1%) were called active. This list was built around the results that the source calls inconclusive (neither active nor inactive); the mix of calls is not that of the screen. The call rests on the fitted dose curve; in most records, active means well fitted inhibition curve with a large enough effect; inconclusive means small, poorly fitted or top-dose-only effect, or another doubt; inactive means no such curve, though single readings can be large or run the other way. A potency beside an inconclusive call is a rough fit, not a confirmed value.

Amino acid sequences for entries named in this document (tags omitted).
UniProt P18054, whole entry, looked up: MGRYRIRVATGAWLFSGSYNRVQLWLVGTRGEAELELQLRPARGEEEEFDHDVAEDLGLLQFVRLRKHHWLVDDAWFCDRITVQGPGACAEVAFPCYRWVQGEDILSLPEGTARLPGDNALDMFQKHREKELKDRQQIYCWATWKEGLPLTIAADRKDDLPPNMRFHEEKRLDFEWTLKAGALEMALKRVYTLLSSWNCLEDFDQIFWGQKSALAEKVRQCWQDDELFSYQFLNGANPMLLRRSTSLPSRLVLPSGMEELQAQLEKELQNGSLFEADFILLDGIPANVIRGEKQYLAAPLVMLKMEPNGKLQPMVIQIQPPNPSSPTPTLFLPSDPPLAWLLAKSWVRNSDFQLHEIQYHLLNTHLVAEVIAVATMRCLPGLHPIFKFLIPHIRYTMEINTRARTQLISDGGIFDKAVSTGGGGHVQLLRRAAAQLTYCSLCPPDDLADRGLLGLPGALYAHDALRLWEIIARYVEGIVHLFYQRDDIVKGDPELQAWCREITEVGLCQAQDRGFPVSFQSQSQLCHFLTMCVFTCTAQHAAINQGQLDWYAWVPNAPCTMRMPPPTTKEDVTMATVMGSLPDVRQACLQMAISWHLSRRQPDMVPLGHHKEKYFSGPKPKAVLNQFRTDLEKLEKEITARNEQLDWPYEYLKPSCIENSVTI

The compounds below were run against Polyunsaturated fatty acid lipoxygenase ALOX12 (Homo sapiens) (UniProt P18054) (assay: Primary qHTS assay for inhibitors of human arachidonate 12S-lipoxygenase (ALOX12): Round 2). Details: purified 12hLO, xylenol orange hydroperoxide absorbance; activity change, negative = inhibition: at 108 µM (top of the series) unless noted.
In short: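 Hydroperoxide product was detected by ferrous iron/xylenol orange as the 573 to 405 nm absorbance ratio. Arachidonic acid at 40 uM (final) was turned over for 30 min at room temperature by 150 nM human 12hLO, pH 7.0 Hepes buffer, after 15 min compound preincubation.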
On the % scale 0 is the no-effect control and ±100 the full control effect; potency means the concentration at half of the fitted maximal effect.

SMILES | activity change, negative = inhibition | Potency
Cc1ccc(NS(=O)(=O)c2cc3c4c(cccc4c2)C(=O)NC3=O)cc1C | inactive: -24.9% | –
O=C(C1=C(O)C(=O)N(c2ncccn2)C1c1ccc(F)cc1)c1ccco1 (stereo not given) | – | inconclusive: 6.31 µM [inhibitor, full curve, poor fit]
CCCCNS(=O)(=O)CCNCc1ccc(OC)cc1 | – | inconclusive: 112 µM [inhibitor, single point]
O=C(NC(c1ccccc1)c1cc2ccccc2o1)C1CC1 (stereo not given) | inactive: 6.45% | –
CCc1c(C)sc(NC(=O)c2ccccc2C)c1C#N | – | inconclusive: 31.6 µM [inhibitor, partial curve]
O=C(NCC1CCCCC1)c1ccc2c(c1)N(S(=O)(=O)c1ccccc1)CC2 | inactive: 7.46% | –
Cc1ccc(COc2cccc(/C=N/NC(=O)c3nnn(-c4nonc4N)c3C)c2)cc1 | inactive: 12% | –
Cc1ccc(C(=O)COC(=O)c2ccccc2O)s1 | – | inconclusive: 50.1 µM [inhibitor, partial curve, poor fit]
O=c1[nH]c(=S)[nH]c2scc(-c3ccc(Br)cc3)c12 | – | inconclusive: 3.16 µM [inhibitor, full curve, poor fit]
Cc1ccc(N2C(=O)N(CC(=O)Nc3ccc(C)cc3Cl)C(=O)C2C)cc1 (stereo not given) | – | inconclusive: 50.1 µM [inhibitor, partial curve, poor fit]
CCC1CN(C(=O)Nc2cccc(C)c2)c2cc(C)ccc2O1 (stereo not given) | – | inconclusive: 112 µM [inhibitor, single point]
CCOC(=O)c1nc2ccccc2nc1NCc1ccc(C)cc1 | inactive: -2.85% | –
Cc1cc(=O)n2c3ccccc3nc2n1CC(=O)c1ccc(Cl)cc1 | – | inconclusive: 126 µM [inhibitor, single point]
Cc1ccc(SCCC(=O)NCc2ccco2)cc1 | – | inconclusive: 2.51 µM [inhibitor, full curve, poor fit]
NC(=O)CN1CCC(C(=O)N2CCCC(CO)(CC3CC3)C2)CC1 (stereo not given) | inactive: 2.58% | –
C=C1c2cc(OC)ccc2NC(=O)N1CC | inactive: -6.49% | –
Cc1cc(C)cc(NC(=O)C(OC(=O)c2cc[n+]([O-])cc2)c2ccccc2)c1 (stereo not given) | inconclusive: -46.5% [inhibitor] | –
O=C(Cc1ccc(Cl)cc1)Nc1ncc([N+](=O)[O-])s1 | – | inconclusive: 44.7 µM [inhibitor, partial curve, poor fit]
Cc1nc(Oc2ccc(Cl)cc2)c2oc3ccccc3c2n1 | – | inconclusive: 3.55 µM [inhibitor, full curve, poor fit]
CC(=O)C1=C(O)C(=O)N(Cc2ccccc2)C1c1cccc([N+](=O)[O-])c1 (stereo not given) | – | inconclusive: 28.2 µM [inhibitor, single point]
O=C(c1ccc2c(c1)OCCO2)N1CCN(c2ccc(C(F)(F)F)cn2)CC1 | – | inconclusive: 100 µM [inhibitor, single point]
CC(C)n1ccc2nc3ccn(-c4ncn[nH]4)c(=O)c3cc2c1=O | – | inconclusive: 3.16 µM [inhibitor, full curve, poor fit]

SMILES | activity change, negative = inhibition | Potency
Cc1cnc(CNc2ccnc(-c3ccoc3)n2)cn1 | – | inconclusive: 15.8 µM [inhibitor, partial curve]
O=C(Cc1ccccc1)NCCC1CCN(C(=O)Nc2ccc(F)cc2)CC1 | inactive: 28.1% | –
COc1cc(C(=O)NC2CCN(c3cc(-c4ccc(Cl)cc4)[nH]n3)C2)cc(OC)c1OC (stereo not given) | – | inconclusive: 100 µM [inhibitor, single point]
c1ccc(-c2c3c(ccc4ccccc43)[o+]c3ccc4ccccc4c23)cc1 | – | inconclusive: 63.1 µM [inhibitor, partial curve, poor fit]
Cc1cc(O)c(C2CCCCC2)cc1C1CCCCC1 | – | inconclusive: 35.5 µM [inhibitor, partial curve, poor fit]
CCC(CC)NC(=O)COC(=O)c1ccc(C)c(C)c1 | – | inconclusive: 39.8 µM [inhibitor, single point]
COc1ccc(CCN2CCC(CNC(=O)c3cnn(-c4ccc(C)cc4)c3C3CCN(C(=O)OC(C)(C)C)CC3)CC2)cc1 | – | active: 39.8 µM
COc1cc(OC)c(C2=CCN(S(=O)(=O)N3CCCC(C)C3)CC2)c(OC)c1 (stereo not given) | – | inconclusive: 79.4 µM [inhibitor, partial curve, poor fit]
CCN1C(=O)[C@H]2[C@@H](c3ccc(-c4ccc(F)cc4)cc3)N[C@@](Cc3ccccc3)(C(=O)OC)[C@H]2C1=O | inactive: -4.83% | –
Cc1ccccc1OCC(O)Cn1c(=N)n(Cc2ccccc2)c2ccccc21 (stereo not given) | – | inconclusive: 50.1 µM [inhibitor, partial curve, poor fit]
Cc1c(-c2ccccc2)c(=O)oc2ccc(OS(C)(=O)=O)cc12 | inactive: 22.7% | –
O=C(/C=C/c1ccc(Cl)cc1)c1ccc(O)cc1 | – | inconclusive: 79.4 µM [inhibitor, single point]
O=C(OCC(=O)N1CCN(c2ccccc2)CC1)c1ccccn1 | – | inconclusive: 28.2 µM [inhibitor, partial curve, poor fit]
CCOC(=O)N1CCN(c2nnc(-c3ccc(C)cc3)c3ccccc23)CC1 | – | inconclusive: 100 µM [inhibitor, single point]
COc1cc(OC)c(OC)cc1CN1CCSCC1 | – | inconclusive: 0.631 µM [inhibitor, full curve]
COc1ccc(-n2nc(C(=O)NCC(=O)NCCCN3CCOCC3)c3ccccc3c2=O)cc1 | – | inconclusive: 35.5 µM [inhibitor, partial curve, poor fit]
COc1ccc(-c2nc3c4ccccc4n(CC(=O)Nc4ccc(C(C)C)cc4)c(=O)n3n2)cc1 | – | inconclusive: 4.47 µM [inhibitor, full curve, poor fit]
CS(=O)(=O)c1ccc(F)c(NC(=O)CCCc2cccs2)c1 | inactive: -33.2% | –
COC(=O)C1=C(C)NC(C)=C(C(=O)OC)C1c1ccc(-c2cccc([N+](=O)[O-])c2)o1 | – | inconclusive: 100 µM [inhibitor, partial curve, poor fit]
Cc1ccccc1-n1c(SCC(=O)Nc2ccc(Cl)cc2Cl)nc(O)cc1=O | – | active: 6.31 µM
Fc1ccc(CCn2c(Cn3c(-c4cnccn4)nc4ccccc43)nc3ccccc32)cc1 | – | inconclusive: 35.5 µM [inhibitor, single point]
CC(C)(C)c1ccc(OCCNCc2ccccc2)cc1 | – | inconclusive: 1.58 µM [inhibitor, full curve, poor fit]

A stretch from further up, for reference:
SMILES | activity change, negative = inhibition | Potency
COc1ccc(-c2nc3c4ccccc4n(CC(=O)Nc4ccc(C(C)C)cc4)c(=O)n3n2)cc1 | – | inconclusive: 4.47 µM [inhibitor, full curve, poor fit]
CS(=O)(=O)c1ccc(F)c(NC(=O)CCCc2cccs2)c1 | inactive: -33.2% | –

One compound at a time, from the list above.
CS(=O)(=O)c1ccc(F)c(NC(=O)CCCc2cccs2)c1 in the list: activity change, negative = inhibition: inactive: -33.2%
COc1ccc(-n2nc(C(=O)NCC(=O)NCCCN3CCOCC3)c3ccccc3c2=O)cc1 in the list: Potency: inconclusive: 35.5 µM [inhibitor, partial curve, poor fit]

Remaining list, next part.

SMILES | activity change, negative = inhibition | Potency
CCC[C@H]1[C@@H](NC(=O)Nc2ccc(C#N)cc2)CC[C@@]23CCCN2C(=O)CCC[C@@H]13 | – | inconclusive: 112 µM [inhibitor, single point]
O=C(CCc1ccccc1)NCc1ccncc1 | inactive: 22.3% | –
CCc1sc(Nc2cccc(C)c2)nc1-c1cc2cccc(OC)c2oc1=O | inactive: -21.5% | –
CCNc1oc(COc2cccc(C)c2)nc1C#N | inactive: 13.8% | –
COC(=O)[C@@]1(Cc2ccc(OC)cc2)[C@H]2c3cc(C(=O)N4CCCC4)n(Cc4ccc(Cl)c(C(F)(F)F)c4)c3C[C@H]2CN1C(=O)c1ccccc1 | – | inconclusive: 39.8 µM [inhibitor, partial curve, poor fit]
O=C(NC(=S)Nc1ccc(Cl)cc1)c1cncc(Br)c1 | – | inconclusive: 3.98 µM [inhibitor, full curve, poor fit]
COc1ccc(S(=O)(=O)c2c(O)c(C)cc(NS(=O)(=O)c3ccc(Cl)cc3)c2C(C)C)cc1 | – | inconclusive: 63.1 µM [inhibitor, partial curve, poor fit]
CC(=O)NCCc1ccc(C(=O)COC(=O)c2cc(C)ccc2O)s1 | – | inconclusive: 39.8 µM [inhibitor, partial curve, poor fit]
O=C(O)CC(NNC(=O)c1ccccc1)C(=O)Nc1ccc([N+](=O)[O-])cc1 (stereo not given) | – | inconclusive: 35.5 µM [inhibitor, single point]
COC(=O)c1ccccc1NC(=O)CC(NCc1ccccc1)C(=O)O (stereo not given) | – | inconclusive: 2.51 µM [inhibitor, full curve, poor fit]
COCC(C)n1c(-c2ccc3c(c2)NC(=O)CO3)csc1=Nc1ccc(OC(F)F)cc1 (stereo not given) | – | inconclusive: 89.1 µM [inhibitor, partial curve, poor fit]
O=[S+]([O-])(c1ccccc1)N1CCn2c(nnc2-c2ccccc2)C1 | – | inconclusive: 8.91 µM [inhibitor, full curve, poor fit]
CC(C)C[C@H](CO)NC(=O)C[C@@H]1c2nc(NC(=O)C(C)(C)C)sc2C[C@@H]2[C@](C)(CO)[C@H](O)CC[C@]21C | – | inconclusive: 70.8 µM [inhibitor, partial curve, poor fit]
COc1ccccc1NC(=O)Cn1nc2c(cc1=O)CN(C(C)=O)CC2 | inactive: 9.11% | –
COc1ccccc1CNC(=O)CN(c1ccccc1)S(=O)(=O)N(C)C | inactive: 49.3% | –
N#Cc1ccc(S(=O)(=O)N[C@H]2CC[C@@]34CCCN3C(=O)CCC[C@H]4[C@H]2Cc2ccccc2)cc1 | inconclusive: -31.8% [inhibitor] | –
Cc1cc(N)ccc1NC(=O)CN1CCCC1 | – | inconclusive: 3.16 µM [inhibitor, full curve, poor fit]
Cc1ccccc1-n1c(C)nnc1SCc1cc(=O)oc2ccc3ccccc3c12 | – | inconclusive: 2.51 µM [inhibitor, full curve, poor fit]
CCNC(=O)O[C@@H]1CO[C@H]2[C@@H]1OC[C@@H]2Nc1nccc(-c2ccc(-c3ccccc3)cc2)n1 | inactive: -0.826% | –
Nc1ccsc1C(=O)N1CCC2(CCC(=O)N(CC3CCCO3)C2)CC1 (stereo not given) | – | active: 7.94 µM
CCCc1cc(-c2nc(-c3ccc(C)cc3)cs2)ccn1 | – | inconclusive: 50.1 µM [inhibitor, partial curve, poor fit]
